From PubChem BioAssay (EPA / NIEHS)
The inconclusive results got no clear call from the source; some entries with a clear call stand among them for comparison. Where the call is inconclusive, the potency comes from a doubtful curve fit. Activity calls are given as the source filed them. Rule for the calls: active = hit-call score of the fitted dose curve at least 0.9, where 1 is the maximum; inconclusive = response in the unintended direction; inactive = score below 0.9.

Chains of the proteins cited; added tags and fusions are not shown. Lines headed by an entry give the natural chain unless they say otherwise; changes in a name come on top.
UniProt P19793: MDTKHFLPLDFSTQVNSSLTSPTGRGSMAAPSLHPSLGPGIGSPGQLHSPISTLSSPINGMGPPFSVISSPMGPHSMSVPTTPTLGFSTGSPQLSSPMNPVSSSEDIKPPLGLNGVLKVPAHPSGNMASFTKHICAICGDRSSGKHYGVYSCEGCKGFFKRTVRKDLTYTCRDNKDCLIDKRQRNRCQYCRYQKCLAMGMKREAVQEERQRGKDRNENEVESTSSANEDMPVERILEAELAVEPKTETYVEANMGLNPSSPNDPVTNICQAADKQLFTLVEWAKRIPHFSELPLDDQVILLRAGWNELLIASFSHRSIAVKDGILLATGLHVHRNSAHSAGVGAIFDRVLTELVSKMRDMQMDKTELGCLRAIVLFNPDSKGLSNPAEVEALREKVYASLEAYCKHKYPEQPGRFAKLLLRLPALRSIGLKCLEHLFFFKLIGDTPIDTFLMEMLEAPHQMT

Target: Retinoic acid receptor RXR-alpha (Homo sapiens) (UniProt P19793)
Assay: ATG_RXRa_TRANS: Attagene TRANS-FACTORIAL HepG2 Assay for human Retinoid X Receptor alpha (RXRa) (AID 2283012)
Experimental: ATG_TRANS is a cell-based, multiplexed-readout assay that uses HepG2, a human liver cell line, with measurements taken at 24 hours after chemical dosing in a 24-well plate.ATG_RXRa_TRANS is one of 30 assay component(s) measured or calculated from the ATG_TRANS assay. It is designed to make measurements of mRNA induction, a form of inducible reporter, as detected with fluorescence intensity signals by Reverse transcription polymerase chain reaction (RT-PCR) and Capillary electrophoresis technology.Data from the assay component ATG_RXRa_TRANS was analyzed into 1 assay endpoint. This assay endpoint, ATG_RXRa_TRANS, was analyzed in the positive analysis fitting direction relative to DMSO as the negative control and baseline of activity. Using a type of inducible reporter, measures of mRNA for gain-of-signal activity can be used to understand the reporter gene at the transcription factor-level as they relate to the gene RXRA. Furthermore, this assay endpoint can be referred to as a primary readout, because this assay has produced multiple assay endpoints where this one serves a reporter gene function. To generalize the intended target to other relatable targets, this assay endpoint is annotated to the nuclear receptor intended target family, where the subfamily is non-steroidal.
Human liver HepG2 cells are transiently transfected with multiple reporter transcription units (MRTUs) in 6-well plates using FuGene 6 reagent (Roche; 3 ml FuGene/1 mg DNA). The MRTU constructs are regulated by a cis-regulating element (promoter). […] A major difference between the CIS and TRANS system is that in CIS activities of endogenous TFs are measured, whereas the TRANS assay evaluates changes in activities of exogenous, chimeric NR-Gal4 proteins. […] At the end of 24 hour incubation, total RNA was isolated using TriZol reagent (Invitrogen). The isolated RNA is then reverse-transcribed using oligo(dT) primer and Mo-MLV reverse transcriptase (Invitrogen) with DNAse I (Ambion) treatment for 30 min. The one-tenth of the produced cDNA was amplified by PCR using Taq DNA polymerase (Invitrogen) and two reporter sequence-specific primers. The PCR products were fluorescently labeled by primer extension with 6-arboxyfluorescein (6-FAM) 5'-labeled reporter sequence-specific primer (2 min at 95 C, 20 s at 68 C and 10 min at 72 C) and these products were digested with 5U of HpaI (New England Biolabs) for 2h at 37 C. The fragments were purified using Qiaquick PCR columns (Qiagen), analyzed on an ABI 3130xL genetic analyzer (Applied Biosystems) with peak positions identified by using a set of X-rhodamine (ROX)-labeled MapMarker1000 molecular weight standards (BioVentures). The raw capillary electrophoresis data was processed using Attagraph software (Attagene).

Row | SMILES | AC50 | outcome
1 | NC(N)=Nc1nc(CSCCC(N)=NS(N)(=O)=O)cs1 | inconclusive: 26.4 µM | –
3 | CCCCCCCCCCCCCC(=O)OCC | inconclusive: 0.0823 µM | –
4 | CN1CCCC1=O | – | inactive
6 | CN(C)C(=O)NC1(c2ccccc2)CCN(CC[C@@]2(c3ccc(F)c(F)c3)CN(C(=O)c3ccccc3)CCO2)CC1 | – | inactive
7 | CC(CN=Cc1ccccc1O)N=Cc1ccccc1O (stereo not given) | inconclusive: 100 µM | –
8 | CCCCCOC(C)=O | inconclusive: 100 µM | –
9 | CCCC(=O)O | inconclusive: 100 µM | –
10 | CN(C)C(=N)N=C(N)N | – | inactive
11 | CCC(C)c1ccccc1 (stereo not given) | inconclusive: 100 µM | –
12 | O=C(c1ccccc1)c1ccc(O)c(O)c1O | – | inactive
13 | CC(C)[N+](C)(CCOC(=O)C1c2ccccc2Oc2ccccc21)C(C)C | inconclusive: 170 µM | –
14 | Nc1ccn([C@H]2CS[C@@H](CO)O2)c(=O)n1 | inconclusive: 100 µM | –
15 | CCC(C)S (stereo not given) | inconclusive: 4.45 µM | –
16 | O=S(=O)(O)c1cc(S(=O)(=O)O)c2ccc3c(S(=O)(=O)O)cc(S(=O)(=O)O)c4ccc1c2c43 | inconclusive: 25 µM | –
17 | c1ccc(CCCc2ccncc2)cc1 | – | inactive
19 | CC(=O)O[C@H](CC(=O)[O-])C[N+](C)(C)C | inconclusive: 0.936 µM | –

Row | SMILES | AC50 | outcome
21 | CCCO[Si](OCCC)(OCCC)OCCC | – | inactive
22 | CC(=O)OC[C@H]1O[C@@](COC(C)=O)(O[C@H]2O[C@H](COC(C)=O)[C@@H](OC(C)=O)[C@H](OC(C)=O)[C@H]2OC(C)=O)[C@@H](OC(C)=O)[C@@H]1OC(C)=O | – | inactive
23 | COCCOCCOCCOC | – | inactive
24 | Cc1ccc(N=Nc2c(O)ccc3ccccc23)c(C)c1 | inconclusive: 50 µM | –
25 | c1ccc(Nc2ccccc2)cc1 | inconclusive: 100 µM | inactive
26 | NC(=O)C(F)(F)C(F)(F)C(F)(F)C(F)(F)F | inconclusive: 150 µM | –
28 | CCC/C=C/CO | – | inactive
29 | CC(C)(c1ccccc1)c1ccc(Nc2ccc(C(C)(C)c3ccccc3)cc2)cc1 | inconclusive: 100 µM | –
31 | CCCCCCCCCCC(CO)CCCCCCCC (stereo not given) | inconclusive: 0.176 µM | –
32 | CC/C=C\CC/C=C/CO | – | inactive
34 | CN(C)c1cccc(O)c1 | inconclusive: 0.578 µM | –
36 | C[Si](C)(C)O[Si](C)(C)C | – | inactive
37 | C=C(C)CCCC(C)CCO (stereo not given) | – | inactive
38 | CCCC[P+](CCCC)(CCCC)CCCC | inconclusive: 100 µM | –

Already shown: an excerpt of the list.
Row | SMILES | AC50 | outcome
22 | CC(=O)OC[C@H]1O[C@@](COC(C)=O)(O[C@H]2O[C@H](COC(C)=O)[C@@H](OC(C)=O)[C@H](OC(C)=O)[C@H]2OC(C)=O)[C@@H](OC(C)=O)[C@@H]1OC(C)=O | – | inactive
23 | COCCOCCOCCOC | – | inactive
24 | Cc1ccc(N=Nc2c(O)ccc3ccccc23)c(C)c1 | inconclusive: 50 µM | –
25 | c1ccc(Nc2ccccc2)cc1 | inconclusive: 100 µM | inactive
26 | NC(=O)C(F)(F)C(F)(F)C(F)(F)C(F)(F)F | inconclusive: 150 µM | –
28 | CCC/C=C/CO | – | inactive
29 | CC(C)(c1ccccc1)c1ccc(Nc2ccc(C(C)(C)c3ccccc3)cc2)cc1 | inconclusive: 100 µM | –
